# Experimental data reported in paper PMC5286509.
# These are yes or no findings as the source states them, for the method shown. In cells and extracts the contact can be indirect. Tags and fused reporters may be left off the sequences shown.
# T1: myc-tagged TAF7L (TATA-binding protein (TBP)-associated factor 7-like) (UniProt Q5H9L4)
# T1 sequence: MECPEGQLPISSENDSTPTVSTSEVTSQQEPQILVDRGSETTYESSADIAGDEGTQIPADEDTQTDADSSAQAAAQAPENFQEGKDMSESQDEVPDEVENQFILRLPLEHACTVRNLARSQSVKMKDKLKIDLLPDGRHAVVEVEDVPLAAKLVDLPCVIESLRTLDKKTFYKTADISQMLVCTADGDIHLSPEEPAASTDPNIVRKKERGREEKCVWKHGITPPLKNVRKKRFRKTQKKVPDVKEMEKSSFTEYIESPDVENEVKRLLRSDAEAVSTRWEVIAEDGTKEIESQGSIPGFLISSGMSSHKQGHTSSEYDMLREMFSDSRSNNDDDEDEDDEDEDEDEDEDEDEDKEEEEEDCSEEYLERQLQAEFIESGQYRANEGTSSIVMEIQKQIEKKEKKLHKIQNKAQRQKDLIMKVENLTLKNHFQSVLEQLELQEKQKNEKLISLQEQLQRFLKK
# Molecular target: T1, myc-tagged TAF7L (TATA-binding protein (TBP)-associated factor 7-like)
# Test: co-IP; HEK293T cells co-transfected with GFP-CTCF, HA-BORIS and one of myc-TAF7L, myc-BRD4 or myc-RFX2; 1.5 mg total protein with anti-Myc, anti-HA or anti-GFP antibody overnight at 4 °C, Protein A/G Dynabeads, western blot
binder,measurement,value
"GFP-tagged CTCF (CCCTC-binding factor) (protein, UniProt P49711 1-727) MEGDAVEAIVEESETFIKGKERKTYQRRREGGQEEDACHLPQNQTDGGEVVQDVNSSVQMVMMEQLDPTLLQMKTEVMEGTVAPEAEAAVDDTQIITLQVVNMEEQPINIGELQLVQVPVPVTVPVATTSVEELQGAYENEVSKEGLAESEPMICHTLPLPEGFQVVKVGANGEVETLEQGELPPQEDPSWQKDPDYQPPAKKTKKTKKSKLRYTEEGKDVDVSVYDFEEEQQEGLLSEVNAEKVVGNMKPPKPTKIKKKGVKKTFQCELCSYTCPRRSNLDRHMKSHTDERPHKCHLCGRAFRTVTLLRNHLNTHTGTRPHKCPDCDMAFVTSGELVRHRRYKHTHEKPFKCSMCDYASVEVSKLKRHIRSHTGERPFQCSLCSYASRDTYKLKRHMRTHSGEKPYECYICHARFTQSGTMKMHILQKHTENVAKFHCPHCDTVIARKSDLGVHLRKQHSYIEQGKKCRYCDAVFHERYALIQHQKSHKNEKRFKCDQCDYACRQERHMIMHKRTHTGEKPYACSHCDKTFRQKQLLDMHFKRYHDPNFVPAAFVCSKCGKTFTRRNTMARHADNCAGPDGVEGENGGETKKSKRGRKRKMRSKKEDSSDSENAEPDLDDNEDEEEPAVEIEPEPEPQPVTPAPPPAKKRRGRPPGRTNQPKQNQPTAIIQVEDQNTGAIENIIVEVKKEPDAEPAEGEEEEAQPAATDAPNGDLTPEMILSMMDR",binding,no binding
